These are yes or no findings as the source states them, for the method shown. In cells and extracts the contact can be indirect. Here binding means that the protein was enriched with, or labelled near, the bait; the list need not be complete. Tags and fused reporters may be left off the sequences shown.

By UniProt entry, the sequences of proteins in these tests, tags left out.
UniProt Q92793: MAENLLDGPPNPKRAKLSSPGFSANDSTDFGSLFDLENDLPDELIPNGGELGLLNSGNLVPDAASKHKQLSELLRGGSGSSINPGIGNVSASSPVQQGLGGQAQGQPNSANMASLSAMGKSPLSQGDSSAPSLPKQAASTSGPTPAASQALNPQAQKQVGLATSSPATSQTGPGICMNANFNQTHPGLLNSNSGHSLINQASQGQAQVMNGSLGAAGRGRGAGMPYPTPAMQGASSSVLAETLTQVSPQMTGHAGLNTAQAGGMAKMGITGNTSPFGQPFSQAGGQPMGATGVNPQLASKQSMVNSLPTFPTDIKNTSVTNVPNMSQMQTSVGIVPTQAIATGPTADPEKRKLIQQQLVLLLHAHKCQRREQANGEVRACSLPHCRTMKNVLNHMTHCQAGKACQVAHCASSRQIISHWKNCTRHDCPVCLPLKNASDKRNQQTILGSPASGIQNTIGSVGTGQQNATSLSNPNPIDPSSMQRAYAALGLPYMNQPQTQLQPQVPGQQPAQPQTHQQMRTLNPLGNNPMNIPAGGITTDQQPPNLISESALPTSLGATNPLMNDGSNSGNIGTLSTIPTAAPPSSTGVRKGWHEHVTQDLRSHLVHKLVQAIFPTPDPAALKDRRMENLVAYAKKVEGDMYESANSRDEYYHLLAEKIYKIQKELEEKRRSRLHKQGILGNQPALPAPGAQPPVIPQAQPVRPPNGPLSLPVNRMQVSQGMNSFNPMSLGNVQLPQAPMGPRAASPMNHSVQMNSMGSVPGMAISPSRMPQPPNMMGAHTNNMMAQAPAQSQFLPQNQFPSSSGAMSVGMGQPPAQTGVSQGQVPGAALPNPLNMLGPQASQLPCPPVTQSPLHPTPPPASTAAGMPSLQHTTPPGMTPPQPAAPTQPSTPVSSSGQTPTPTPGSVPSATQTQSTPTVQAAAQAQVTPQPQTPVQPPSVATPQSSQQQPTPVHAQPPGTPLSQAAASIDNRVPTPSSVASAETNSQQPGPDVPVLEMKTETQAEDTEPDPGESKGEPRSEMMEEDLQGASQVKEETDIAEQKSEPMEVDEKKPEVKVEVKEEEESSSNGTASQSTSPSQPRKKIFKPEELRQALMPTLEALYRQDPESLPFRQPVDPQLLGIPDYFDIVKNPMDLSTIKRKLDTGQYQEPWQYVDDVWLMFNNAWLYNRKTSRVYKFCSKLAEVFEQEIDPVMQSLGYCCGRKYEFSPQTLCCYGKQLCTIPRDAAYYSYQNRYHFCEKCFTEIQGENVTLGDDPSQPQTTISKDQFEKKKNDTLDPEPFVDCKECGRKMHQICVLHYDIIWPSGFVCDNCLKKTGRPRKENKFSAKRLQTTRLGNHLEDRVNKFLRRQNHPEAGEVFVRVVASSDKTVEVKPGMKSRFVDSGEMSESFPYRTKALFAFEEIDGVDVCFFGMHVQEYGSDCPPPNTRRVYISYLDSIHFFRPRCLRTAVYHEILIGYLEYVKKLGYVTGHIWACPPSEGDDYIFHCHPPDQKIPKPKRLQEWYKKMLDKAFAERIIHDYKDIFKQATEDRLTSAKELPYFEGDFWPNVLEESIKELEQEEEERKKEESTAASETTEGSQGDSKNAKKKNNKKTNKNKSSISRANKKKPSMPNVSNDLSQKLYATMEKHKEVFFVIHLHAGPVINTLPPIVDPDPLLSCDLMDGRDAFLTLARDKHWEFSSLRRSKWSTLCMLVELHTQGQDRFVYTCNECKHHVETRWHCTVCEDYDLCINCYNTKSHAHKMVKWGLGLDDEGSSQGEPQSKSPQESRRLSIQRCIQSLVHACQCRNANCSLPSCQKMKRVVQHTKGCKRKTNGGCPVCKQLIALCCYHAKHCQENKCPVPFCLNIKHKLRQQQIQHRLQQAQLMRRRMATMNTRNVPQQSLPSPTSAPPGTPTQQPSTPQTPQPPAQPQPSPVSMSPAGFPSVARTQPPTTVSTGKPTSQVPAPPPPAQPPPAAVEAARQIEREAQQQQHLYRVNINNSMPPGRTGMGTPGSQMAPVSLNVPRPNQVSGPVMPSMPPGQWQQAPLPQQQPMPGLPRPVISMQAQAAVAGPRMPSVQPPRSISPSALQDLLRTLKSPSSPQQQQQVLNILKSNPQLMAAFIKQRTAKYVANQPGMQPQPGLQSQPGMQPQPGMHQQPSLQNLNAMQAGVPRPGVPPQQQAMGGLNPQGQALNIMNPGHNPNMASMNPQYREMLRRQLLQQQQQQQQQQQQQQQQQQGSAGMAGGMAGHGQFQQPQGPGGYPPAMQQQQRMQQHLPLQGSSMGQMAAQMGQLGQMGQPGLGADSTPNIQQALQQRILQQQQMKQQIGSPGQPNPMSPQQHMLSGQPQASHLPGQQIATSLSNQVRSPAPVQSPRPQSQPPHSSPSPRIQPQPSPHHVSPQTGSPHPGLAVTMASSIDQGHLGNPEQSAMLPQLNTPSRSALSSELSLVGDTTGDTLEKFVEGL
UniProt Q09472: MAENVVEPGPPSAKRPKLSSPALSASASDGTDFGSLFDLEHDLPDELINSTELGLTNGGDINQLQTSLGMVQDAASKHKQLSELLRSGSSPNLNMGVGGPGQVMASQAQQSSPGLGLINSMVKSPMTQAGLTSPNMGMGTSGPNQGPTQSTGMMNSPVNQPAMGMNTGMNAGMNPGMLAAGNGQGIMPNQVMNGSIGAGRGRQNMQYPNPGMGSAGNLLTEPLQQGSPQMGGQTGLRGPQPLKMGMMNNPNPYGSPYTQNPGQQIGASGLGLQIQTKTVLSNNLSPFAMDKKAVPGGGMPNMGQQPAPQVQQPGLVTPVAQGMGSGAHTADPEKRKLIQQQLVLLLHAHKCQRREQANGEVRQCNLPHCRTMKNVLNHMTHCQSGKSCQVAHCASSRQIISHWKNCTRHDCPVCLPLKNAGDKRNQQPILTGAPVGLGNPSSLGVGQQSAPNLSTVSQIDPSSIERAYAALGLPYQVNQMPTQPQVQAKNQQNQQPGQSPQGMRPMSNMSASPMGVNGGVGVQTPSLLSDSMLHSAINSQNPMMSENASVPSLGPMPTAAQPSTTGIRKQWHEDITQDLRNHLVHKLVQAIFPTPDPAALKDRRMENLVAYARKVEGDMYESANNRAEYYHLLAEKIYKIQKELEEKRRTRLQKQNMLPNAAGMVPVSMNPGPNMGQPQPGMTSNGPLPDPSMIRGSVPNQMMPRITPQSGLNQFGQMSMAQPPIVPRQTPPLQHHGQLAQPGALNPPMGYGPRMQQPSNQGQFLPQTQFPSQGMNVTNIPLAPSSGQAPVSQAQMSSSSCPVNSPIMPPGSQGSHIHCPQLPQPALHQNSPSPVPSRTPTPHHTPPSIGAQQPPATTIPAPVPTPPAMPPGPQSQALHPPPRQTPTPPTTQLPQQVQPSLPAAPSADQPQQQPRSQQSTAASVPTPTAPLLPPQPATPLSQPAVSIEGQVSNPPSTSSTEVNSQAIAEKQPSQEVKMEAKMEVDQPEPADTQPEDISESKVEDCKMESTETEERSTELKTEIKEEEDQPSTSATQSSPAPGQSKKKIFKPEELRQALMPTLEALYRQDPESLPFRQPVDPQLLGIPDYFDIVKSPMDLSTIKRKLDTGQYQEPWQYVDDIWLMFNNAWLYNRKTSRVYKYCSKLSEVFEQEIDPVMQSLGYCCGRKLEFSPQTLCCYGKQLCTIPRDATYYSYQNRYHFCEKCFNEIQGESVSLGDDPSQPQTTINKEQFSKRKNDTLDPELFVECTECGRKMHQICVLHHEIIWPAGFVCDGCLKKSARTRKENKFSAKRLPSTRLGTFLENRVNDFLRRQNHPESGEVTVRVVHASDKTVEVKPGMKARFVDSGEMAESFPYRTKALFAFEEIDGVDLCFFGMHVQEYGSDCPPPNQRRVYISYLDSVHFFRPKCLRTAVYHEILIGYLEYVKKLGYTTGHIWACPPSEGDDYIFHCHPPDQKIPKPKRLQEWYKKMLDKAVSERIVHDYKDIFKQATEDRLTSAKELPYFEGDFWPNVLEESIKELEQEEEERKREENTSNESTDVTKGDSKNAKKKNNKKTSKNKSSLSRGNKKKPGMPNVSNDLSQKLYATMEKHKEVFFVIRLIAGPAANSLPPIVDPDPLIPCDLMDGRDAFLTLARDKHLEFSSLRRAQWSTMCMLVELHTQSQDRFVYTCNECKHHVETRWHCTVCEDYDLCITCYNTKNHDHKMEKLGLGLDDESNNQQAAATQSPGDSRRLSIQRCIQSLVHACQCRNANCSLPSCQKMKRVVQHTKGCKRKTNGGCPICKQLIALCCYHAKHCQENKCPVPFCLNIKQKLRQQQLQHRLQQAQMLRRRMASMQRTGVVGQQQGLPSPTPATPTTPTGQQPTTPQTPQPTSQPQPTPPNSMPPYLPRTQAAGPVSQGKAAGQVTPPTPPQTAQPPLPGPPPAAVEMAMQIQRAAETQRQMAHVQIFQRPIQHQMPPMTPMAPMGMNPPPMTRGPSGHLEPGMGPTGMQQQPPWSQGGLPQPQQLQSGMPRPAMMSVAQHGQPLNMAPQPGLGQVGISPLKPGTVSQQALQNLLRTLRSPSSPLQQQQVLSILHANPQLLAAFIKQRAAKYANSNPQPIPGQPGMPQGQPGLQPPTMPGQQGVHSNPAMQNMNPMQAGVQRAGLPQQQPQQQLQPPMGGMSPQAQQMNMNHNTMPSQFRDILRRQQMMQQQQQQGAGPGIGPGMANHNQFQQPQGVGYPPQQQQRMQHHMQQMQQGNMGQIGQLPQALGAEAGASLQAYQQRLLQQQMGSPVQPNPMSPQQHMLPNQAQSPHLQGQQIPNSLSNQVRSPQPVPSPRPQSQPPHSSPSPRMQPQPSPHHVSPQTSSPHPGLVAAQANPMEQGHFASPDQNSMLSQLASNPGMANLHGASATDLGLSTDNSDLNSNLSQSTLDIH

This assay has as its target T1, His6-GST-mouse Aire CTT (mouse) (UniProt Q9Z0E3).
T1 sequence: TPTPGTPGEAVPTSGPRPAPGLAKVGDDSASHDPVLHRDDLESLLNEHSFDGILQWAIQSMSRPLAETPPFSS
Nature of the assay: affinity purification with mass spectrometry; His6-GST-mouse Aire CTT on glutathione Sepharose beads, 293T nuclear extract, 16 h at 4 °C; ~250 kDa SDS-PAGE band cut and analysed by LC-MS/MS; His6-GST as negative control; only the target purified.

Turning to CBP (from UniProt Q92793 1-2442), the binding result is recorded as “binds”.

On to p300 (from UniProt Q09472 1-2414), for which the binding result is reported as “binds”.

Source of the values: paper PMC11362013, “Mechanism for controlled assembly of transcriptional condensates by Aire” (Nature Immunology, 2024).
